Data from paper PMC6986101, “The mitochondrial HSP90 paralog TRAP1 forms an OXPHOS-regulated tetramer and is involved in mitochondrial metabolic homeostasis” (BMC Biology, 2020).
Positions count from the first letter of the chain named. Numbers in names are those of the source. No constants are given. Whether binding was seen depends on the method and setting. Some results given as binding are weak or reduced against the parent protein; the word gives no strength. Tags and fused reporters may be left off the sequences shown. One block for each binder: values may come before it.

Legend:
[1] = target: WT TRAP1 with C-terminal HA tag (pcDNA3.1 (+) MTS-TRAP1-HA) (human) (UniProt Q12931); assay: native gel or EMSA; clear native PAGE (6% or 8% Tris-glycine, 4 °C) of 30 μg mitochondrial extract, immunoblot with anti-TRAP1; cells also treated with hypoxia, oligomycin, rotenone, antimycin A or LDHi, or grown on different carbon sources
[2] = target: TRAP1 mutant E115A/R402A with C-terminal HA tag (human) (UniProt Q12931); assay: as above

binding [1]: binds
B1: WT TRAP1 with C-terminal HA tag (pcDNA3.1 (+) MTS-TRAP1-HA) (protein, UniProt Q12931 60-704)
chain: STQTAEDKEEPLHSIISSTESVQGSTSKHEFQAETKKLLDIVARSLYSEKEVFIRELISNASDALEKLRHKLVSDGQALPEMEIHLQTNAEKGTITIQDTGIGMTQEELVSNLGTIARSGSKAFLDALQNQAEASSKIIGQFGVGFYSAFMVADRVEVYSRSAAPGSLGYQWLSDGSGVFEIAEASGVRTGTKIIIHLKSDCKEFSSEARVRDVVTKYSNFVSFPLYLNGRRMNTLQAIWMMDPKDVREWQHEEFYRYVAQAHDKPRYTLHYKTDAPLNIRSIFYVPDMKPSMFDVSRELGSSVALYSRKVLIQTKATDILPKWLRFIRGVVDSEDIPLNLSRELLQESALIRKLRDVLQQRLIKFFIDQSKKDAEKYAKFFEDYGLFMREGIVTATEQEVKEDIAKLLRYESSALPSGQLTSLSEYASRMRAGTRNIYYLCAPNRHLAEHSPYYEAMKKKDTEVLFCFEQFDELTLLHLREFDKKKLISVETDIVVDHYKEEKFEDRSPAAECLSEKETEELMAWMRNVLGSRVTNVKVTLRLDTHPAMVTVLEMGAARHFLRMQQLAKTQEERAQLLQPTLEINPRHALIKKLNQLRASEPGLAQLLVDQIYENAMIAAGLVDDPRAMVGRLNELLVKALERH

binding [2]: binds
B2: TRAP1 mutant E115A/R402A with C-terminal HA tag (protein, UniProt Q12931 60-704)
chain: B1 chain with E56A, R343A
